Results are given in words; binding and its absence hold for the method and conditions named. Binding seen in cells or lysates may run through a third protein. Some entries that bind do so weakly or less than the wild type.
Molecular target: T1, Matrin 3 (human (endogenous in HCT116)) (UniProt P43243)
T1 sequence: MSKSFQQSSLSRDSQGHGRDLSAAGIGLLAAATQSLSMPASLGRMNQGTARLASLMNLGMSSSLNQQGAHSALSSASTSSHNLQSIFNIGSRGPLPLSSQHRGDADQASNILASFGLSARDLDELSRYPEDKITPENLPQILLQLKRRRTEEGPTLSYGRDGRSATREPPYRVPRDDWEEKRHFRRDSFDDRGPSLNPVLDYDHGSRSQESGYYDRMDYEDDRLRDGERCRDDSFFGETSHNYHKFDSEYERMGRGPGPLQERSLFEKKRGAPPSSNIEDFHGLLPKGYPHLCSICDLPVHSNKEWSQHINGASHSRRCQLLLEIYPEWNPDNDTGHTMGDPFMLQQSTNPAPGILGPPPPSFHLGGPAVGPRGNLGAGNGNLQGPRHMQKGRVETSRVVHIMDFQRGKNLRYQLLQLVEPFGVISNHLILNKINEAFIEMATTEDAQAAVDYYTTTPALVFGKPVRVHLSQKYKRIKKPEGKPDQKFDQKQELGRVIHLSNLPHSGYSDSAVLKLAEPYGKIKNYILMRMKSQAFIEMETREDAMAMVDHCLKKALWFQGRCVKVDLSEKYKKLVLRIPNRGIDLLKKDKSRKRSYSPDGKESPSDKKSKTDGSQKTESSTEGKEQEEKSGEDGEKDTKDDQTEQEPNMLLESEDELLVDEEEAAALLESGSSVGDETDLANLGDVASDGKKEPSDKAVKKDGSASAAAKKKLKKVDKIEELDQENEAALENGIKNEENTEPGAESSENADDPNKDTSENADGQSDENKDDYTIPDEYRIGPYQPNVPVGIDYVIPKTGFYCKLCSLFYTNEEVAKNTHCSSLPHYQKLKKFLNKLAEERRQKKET
Assay: co-IP; Matrin 3 antibody or IgG on protein A/G magnetic beads, 500 µg HCT116 whole cell lysate in RIPA buffer, 4 hr at 4°C; cells untreated or treated with 5-FU (100 µM) for 24 hr; beads untreated or treated with RNase A and DNase for 30 min at 37°C; immunoblot for p53 (DO-1)

binding: binds
Substance: p53 (from UniProt P04637 1-393)
